From patent US7064206B1 (University of Kentucky Research Foundation, priority 2003, dated 2006)

Assay: Active loading into premade liposomes by ammonium sulfate gradient
Settings: underivatized drug

Compound: CC[C@@]1(O)C(=O)OCc2c1cc1n(c2=O)Cc2c-1nc1ccc(O)cc1c2[Si](C)(C)C(C)(C)C [DB-67, 7-t-butyldimethylsilyl-10-hydroxycamptothecin]
- localization in the liposome: predominantly in the bilayer compartment

Compound: Camptothecin
- localization in the liposome: predominantly in the bilayer compartment
